Data published in US20050203007A1.
Numbering of substitutions follows the chain as printed. No constants are given. Whether binding was seen depends on the method and setting. A result given as binding can be weak or reduced; the word gives no strength.

B1: R1-eglin (designed binder)
chain: SMGSELKSFPEVVGKTVDQAREYFTLHYPQYDVYFLPEGSPVTRDLRYNRVRVFYNPGTNVVNHVPHVG
B2: M4K1-eglin (designed binder)
chain: B1 chain with P41M, R44K
B3: R4K1-eglin (designed binder)
chain: B1 chain with P41R, R44K

target: trypsin; test: titration of inhibitor with active-site titrated trypsin

binding, binds:
B1
B2
B3
